These results are taken from article PMC7041726.

Sequences of proteins named here, by UniProt entry; tags and fusion partners are left off. A change or cut given only in a name is not applied to a line headed by its entry.
UniProt P35222: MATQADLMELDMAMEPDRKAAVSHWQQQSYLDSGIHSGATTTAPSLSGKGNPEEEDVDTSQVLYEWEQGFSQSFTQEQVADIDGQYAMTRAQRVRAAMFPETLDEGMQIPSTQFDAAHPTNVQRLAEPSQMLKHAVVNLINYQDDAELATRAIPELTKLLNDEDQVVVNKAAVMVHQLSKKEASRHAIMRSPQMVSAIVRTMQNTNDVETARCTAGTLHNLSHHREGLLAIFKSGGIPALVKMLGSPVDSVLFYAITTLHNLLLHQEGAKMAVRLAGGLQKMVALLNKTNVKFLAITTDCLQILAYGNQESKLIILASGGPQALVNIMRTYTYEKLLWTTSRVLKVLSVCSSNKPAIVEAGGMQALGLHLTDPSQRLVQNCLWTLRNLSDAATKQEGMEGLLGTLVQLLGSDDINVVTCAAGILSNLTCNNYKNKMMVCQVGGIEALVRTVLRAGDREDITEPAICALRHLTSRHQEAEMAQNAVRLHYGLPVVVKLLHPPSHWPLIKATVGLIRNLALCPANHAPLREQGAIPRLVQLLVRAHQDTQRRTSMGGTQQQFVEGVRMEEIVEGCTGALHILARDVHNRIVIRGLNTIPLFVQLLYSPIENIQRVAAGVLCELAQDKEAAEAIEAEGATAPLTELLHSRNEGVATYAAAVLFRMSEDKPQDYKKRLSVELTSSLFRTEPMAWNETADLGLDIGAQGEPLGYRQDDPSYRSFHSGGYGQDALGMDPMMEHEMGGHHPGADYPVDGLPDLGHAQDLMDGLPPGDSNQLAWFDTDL
UniProt P61081: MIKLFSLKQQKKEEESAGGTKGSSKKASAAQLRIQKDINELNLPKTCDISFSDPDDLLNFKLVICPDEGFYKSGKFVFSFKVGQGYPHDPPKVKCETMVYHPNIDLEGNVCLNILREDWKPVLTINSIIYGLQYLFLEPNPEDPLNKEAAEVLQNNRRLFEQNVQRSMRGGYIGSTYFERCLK

In the test the target is β-catenin (human (endogenous in MHCC-97L)) (UniProt P35222). Nature of the test: co-IP; MHCC-97L cell lysate, protein G-agarose; IgG as negative control; which protein was precipitated is not given.

No constants are given. Whether binding was seen depends on the method and setting. Binding seen in cells or lysates may run through a third protein. Some binding calls cover weakened binding; strength is not graded here.

For the substance “ubiquitin-conjugating enzyme E2M (UBE2M) (from UniProt P61081 1-183)”, the binding result is listed as “binds”.
